These results are taken from paper PMC7819943, “Rice protein-binding microarrays: a tool to detect cis-acting elements near promoter regions in rice”.

By UniProt entry, the sequences of proteins in these tests, tags left out.
UniProt Q0JBA9, entry or part of it: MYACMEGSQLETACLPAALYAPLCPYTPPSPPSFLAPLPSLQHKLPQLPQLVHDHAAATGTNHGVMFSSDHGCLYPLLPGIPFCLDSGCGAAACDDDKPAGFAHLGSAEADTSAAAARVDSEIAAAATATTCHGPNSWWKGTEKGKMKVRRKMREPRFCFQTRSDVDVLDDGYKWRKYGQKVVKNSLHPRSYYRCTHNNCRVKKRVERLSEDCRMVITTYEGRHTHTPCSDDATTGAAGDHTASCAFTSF

This is one part of the list.

This assay addresses OsWRKY34 (Oryza sativa, UniProt Q0JBA9 1-250). Description: protein-binding microarray (RPBM); PBS, 2% BSA, 51.3 ng/ul salmon testes DNA, 50 uM zinc acetate, 200 nM TF, 25 C, 1 h; high values mean tight binding. The settings on record: protein: recombinant; tags: N-terminal polyhistidine and DsRed monomer fusion (pET32a); label: CyDye5-dUTP incorporated in the synthesized complementary strand; 3' TTTTT single-stranded linker to array surface; dsDNA, one strand shown. In outline:
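Binding signal here means per-feature fluorescence intensity in arbitrary units. The values were read on an Axon 4000B scanner after a custom Agilent array, double-stranded by primer extension with Cy5-dUTP, was incubated with 200 nM protein at 25 °C for 1 h in PBS with 2% BSA, salmon testes DNA and 50 µM zinc acetate, then washed. The proteins were transcription factors with an N-terminal polyhistidine tag and DsRed, expressed in E. coli BL21-CodonPlus and purified on Ni–NTA.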
Take “CTTTGGTAGCTCCGTCGTCTCATTTACTGCTACAGCGATACGGAGTCACCTAGTGCAG”: the binding signal is 8340 fluorescence intensity (a.u.). As to “TGGGTTTTATTTTCCCATTCTTTCGAGCTATTTTGACGGACGGAGTCACCTAGTGCAG”, the binding signal is 8220 fluorescence intensity (a.u.). In the case of “GTATCGCCAAGGAGGAGAGGGGAGAGGGGTGGAAGAGGAACGGAGTCACCTAGTGCAG”, the binding signal is 11900 fluorescence intensity (a.u.). Consider “TTTTTGTACAAGCTGGTATTATTTTCATTGGGTTGCTAGGCGGAGTCACCTAGTGCAG”, for which the binding signal is 8480 fluorescence intensity (a.u.). “TTTGCCAAGTATAAGAAGGTCTTGCCACATGCAGGTTCTCCGGAGTCACCTAGTGCAG”: the binding signal is 9350 fluorescence intensity (a.u.). Consider “TGCCGTTTCTTTGGTCTCATCCTCCGCTAGCAGCAAAGCCCGGAGTCACCTAGTGCAG”, for which the binding signal was 8160 fluorescence intensity (a.u.). For “GATGTGGCATCTCAACTGGGCTACAGTAGCATCGACTCAGCGGAGTCACCTAGTGCAG”, the binding signal was 8290 fluorescence intensity (a.u.). For the sequence “GCTGTTAATTGTATACCCCACTTGGCCGCTATCTTTGACACGGAGTCACCTAGTGCAG”, the binding signal is 10200 fluorescence intensity (a.u.). With “ATGTCCAATATCTCTTGTCCTCTATCTGGCTTCTGACATCCGGAGTCACCTAGTGCAG” the figure was 10800 fluorescence intensity (a.u.); with “TCTTCTTCTCTGTGTATCCCTTGTTCTTTTGATATTTTGACGGAGTCACCTAGTGCAG”, 12500 fluorescence intensity (a.u.); with “CTCTGGTCACGATACTCCCGGTCCCATATCACCGACACCGCGGAGTCACCTAGTGCAG”, 8110 fluorescence intensity (a.u.). In the case of “CCGATCTCTCTCACTCTCCACCCACACCTCCACTCCACTCCGGAGTCACCTAGTGCAG”, the binding signal is 8870 fluorescence intensity (a.u.).

On to “CGAGTACTCAGCCTTTTTACATGCATGCGATTTTTTTTCTCGGAGTCACCTAGTGCAG”, for which the binding signal was 8620 fluorescence intensity (a.u.). Consider “CACACTCCCATCCATTCTCCTCTCCTTTCCTCTCCTCTCCCGGAGTCACCTAGTGCAG”, for which the binding signal is 8050 fluorescence intensity (a.u.).

Turning to “GACTTTTTAAGTATATGTTTGACCGTTCGTCTTATTCAAACGGAGTCACCTAGTGCAG”, the binding signal was 9530 fluorescence intensity (a.u.). With “TCCTACGTGGATAAACTTGTTTTTTTGCTTTTGTGCGACGCGGAGTCACCTAGTGCAG” the figure was 9490 fluorescence intensity (a.u.); with “TGGATCTCGCCGCCGCCTTCCACCAACCCTCGCCGGACAACGGAGTCACCTAGTGCAG”, 8730 fluorescence intensity (a.u.); with “TTAGCCTCGTACGTTGTCTCGGGCAATTTGTTTCCCTCCGCGGAGTCACCTAGTGCAG”, 8530 fluorescence intensity (a.u.). Turning to “TCTTGTCGTCCTCACCGCCATCTGTGCGCCCATACAACTACGGAGTCACCTAGTGCAG”, the binding signal is 10600 fluorescence intensity (a.u.).

Turning to “ACAACACGGCAAATTCTCAATACATATTATAGCATACTCTCGGAGTCACCTAGTGCAG”, the binding signal was 9110 fluorescence intensity (a.u.). In the case of “ATTTCATTTTTTTCCCTCTATTCTTAGTTCTTCTCTGTTCCGGAGTCACCTAGTGCAG” it was 8360 fluorescence intensity (a.u.); in that of “GGATCAATTAATGGAAGCATGAATAATGCATTTTCTCTCCCGGAGTCACCTAGTGCAG”, 8240 fluorescence intensity (a.u.). With “ATCCCGTTCCGGCCCAACTTCGTCTTTTCGGCCCAATGGGCGGAGTCACCTAGTGCAG”, the binding signal was 8700 fluorescence intensity (a.u.). Turning to “CAGTGCCGATAAAATTTGTTATTTTTGTTTCTTCATATATCGGAGTCACCTAGTGCAG”, the binding signal is 10900 fluorescence intensity (a.u.). As to “TCCAATCCAGCCCGTCCACTCCCACACCAACGGTCGCGATCGGAGTCACCTAGTGCAG”, the binding signal was 8410 fluorescence intensity (a.u.). For “ATGGTTCTCGATATCTTCCTCTCTCCATTCCACCGATTAACGGAGTCACCTAGTGCAG”, the binding signal is 9480 fluorescence intensity (a.u.).

As to “CTTTTTTGACAGTCATCTTCAGTTTTTTTTTTTTGTTTAACGGAGTCACCTAGTGCAG”, the binding signal is 12500 fluorescence intensity (a.u.). Consider “GTAACTACAGCCATATTCTTTTGATTTTATTTACCGGATTCGGAGTCACCTAGTGCAG”, for which the binding signal was 9050 fluorescence intensity (a.u.). With “AAGCTCTTCTACGGCAATGCATTTTTTTATGCCACATATGCGGAGTCACCTAGTGCAG” the figure was 9820 fluorescence intensity (a.u.); with “GATCTTACATCGTTAGCATGCTTTTTAAACTGTTTAACGACGGAGTCACCTAGTGCAG”, 9250 fluorescence intensity (a.u.); with “ATGTTTTTGTTTTTGCCATAAGATGTTGTGATCTAACTCCCGGAGTCACCTAGTGCAG”, 9410 fluorescence intensity (a.u.). In the case of “CTCTTCAGTCAGTTCGGTGTCATGGCACTAGCCGCTACTACGGAGTCACCTAGTGCAG” it was 8240 fluorescence intensity (a.u.); in that of “TCTGACTAAAAACCGTTCAACTGCGCTCCTATTTACTGCTCGGAGTCACCTAGTGCAG”, 8490 fluorescence intensity (a.u.); in that of “TCCTCTGATCGGCCTCTCTCGCACATTGCTTAATTAGCTACGGAGTCACCTAGTGCAG”, 10800 fluorescence intensity (a.u.).

With “GCAATTTTTTTCAGAGCGTGTACATTCCCGTGTTTGTCTGCGGAGTCACCTAGTGCAG”, the binding signal is 12100 fluorescence intensity (a.u.). With “CTCAGCTTTGTCCACACCTGTTTCTCAACATTTTTCTATGCGGAGTCACCTAGTGCAG” the figure was 9610 fluorescence intensity (a.u.); with “TCTCGTAGTTGTATATTACTACCAGTCGTATGGTTATATCCGGAGTCACCTAGTGCAG”, 8330 fluorescence intensity (a.u.). With “ATTTTGATGATATGTGAACTTGGTTTTTGGTTTGGCCACGCGGAGTCACCTAGTGCAG”, the binding signal is 8720 fluorescence intensity (a.u.). For the sequence “CCTCCGCTTCATATTATAAGTTGTTTGATTTTTTTCCTAACGGAGTCACCTAGTGCAG”, the binding signal is 11300 fluorescence intensity (a.u.).

On to “TGGATAATGTTGGATAACGGGAAATGAGGGGTGGGATTAACGGAGTCACCTAGTGCAG”, for which the binding signal is 10000 fluorescence intensity (a.u.). Regarding “GACTTTCTTATTTTATTTTTCTAACTTTATTTTTTATTTTCGGAGTCACCTAGTGCAG”, the binding signal was 10200 fluorescence intensity (a.u.). Take “CCACCAGCCCGTGCAATCAGTGGCACTGTAAATTTTTGCTCGGAGTCACCTAGTGCAG”: the binding signal was 8180 fluorescence intensity (a.u.).
